Results on four molecules are retold here after publication PMC7396870.

The chains behind the UniProt entries cited, without tags or fusion partners. Residues count along the entry.
UniProt P42260, residues 32-908: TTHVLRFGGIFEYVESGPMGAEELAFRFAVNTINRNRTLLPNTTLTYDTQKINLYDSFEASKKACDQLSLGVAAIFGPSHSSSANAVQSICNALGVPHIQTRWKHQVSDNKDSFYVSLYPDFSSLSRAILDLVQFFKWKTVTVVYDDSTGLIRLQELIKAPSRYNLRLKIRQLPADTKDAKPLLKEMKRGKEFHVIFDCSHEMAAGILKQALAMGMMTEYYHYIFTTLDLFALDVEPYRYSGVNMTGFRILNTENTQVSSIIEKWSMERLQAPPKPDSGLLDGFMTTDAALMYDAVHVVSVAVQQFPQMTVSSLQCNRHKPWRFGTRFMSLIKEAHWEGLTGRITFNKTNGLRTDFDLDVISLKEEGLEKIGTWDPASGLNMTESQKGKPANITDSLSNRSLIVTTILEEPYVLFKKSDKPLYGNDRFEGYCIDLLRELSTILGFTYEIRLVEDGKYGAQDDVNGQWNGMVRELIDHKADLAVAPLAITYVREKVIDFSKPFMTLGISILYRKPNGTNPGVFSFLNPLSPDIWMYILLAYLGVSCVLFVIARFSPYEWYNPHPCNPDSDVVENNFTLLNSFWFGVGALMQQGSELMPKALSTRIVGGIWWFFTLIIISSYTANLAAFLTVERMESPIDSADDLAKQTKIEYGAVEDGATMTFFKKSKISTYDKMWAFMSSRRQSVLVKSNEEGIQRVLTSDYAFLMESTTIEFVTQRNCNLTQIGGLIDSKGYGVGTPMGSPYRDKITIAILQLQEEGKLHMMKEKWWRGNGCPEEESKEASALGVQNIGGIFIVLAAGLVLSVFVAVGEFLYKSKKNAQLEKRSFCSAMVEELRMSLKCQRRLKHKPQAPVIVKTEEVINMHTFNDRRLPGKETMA

These are yes or no findings as the source states them, for the method shown. Binding seen in cells or lysates may run through a third protein. Some entries that bind do so weakly or less than the wild type. Where a sequence is shown, tags or fusion partners need not be part of it.

B1: SEZ6 ectodomain (pFU HA-SLIC-Flagx2-mmSEZ6ecto) (domain or fragment, UniProt Q7TSK2-1 20-909)
chain: LSSEAPITGEGHATGIRETDGELTAAPTPEQSDRGVHFVTTAPTLKLLNHHPLLEEFLQEGLEREEAPQPALPFQPDSPTHFTPSPLPRLTNQDNRPVFTSPTPAVAAAPTQPHSREKPWNLESKPPELSITSSLPPGPSMAVPTLLPEDRPSTTPPSQAWTPTQEGPGDMDRPWVPEVMSKTTGLGVEGTIATSTASGDDEETTTTIITTTVTTVQPPGPCSWNFSGPEGSLDSPTAPSSPSDVGLDCFYYISVYPGYGVEIKVENISLQEGETITVEGLGGPDPLPLANQSFLLRGQVIRSPTHQAALRFQSLPLPAGPGTFHFRYQAYLLSCHFPRRPAYGDVTVTSLHPGGSAHFHCATGYQLKGARFLTCLNATQPFWDSQEPVCIAACGGVIRNATTGRIVSPGFPGNYSNNLTCHWLLEAPESQRLHLHFEKVSLAEDDDRLIIRNGNNVEAPPVYDSYEVEYLPIEGLLSSGRHFFVEFSTDSSGAAAGMALRYEAFQQGHCYEPFVKYGNFSSSAPSYPVGTTVEFSCDPGYTLEQGSIIIECVDLHDPQWNETEPACRAVCSGEITDSAGVVLSPNWPEPYGRGQDCIWGVHVEEDKRIMLDIRVLRIGSGDVLTFYDGDDLTARVLGQYSGPRGHFKLFTSMADVTIQFQSDPGTSALGYQQGFVIHFFEVPRNDTCPELPEIPNGWKNPSQPELVHGTVVTYQCYPGYQVVGSSILMCQWDLSWSEDLPSCQRVTSCHDPGDVEHSRRLISSPKFPVGATVQYVCDQGFVLTGSAILTCHDRQAGSPKWSDRAPKCLLEQFKPCHGLSAPENGARSPEKRLHPAGATIHFSCAPGYVLKGQASIKCVPGHPSHWSDPPPICRAASLDGFYNGRSLDVA
B2: SEZ6 full length, HA- and 2xFlag-tagged (pFU HA-SLIC-Flagx2-mmSEZ6FL) (protein, UniProt Q7TSK2-1 20-991)
chain: LSSEAPITGEGHATGIRETDGELTAAPTPEQSDRGVHFVTTAPTLKLLNHHPLLEEFLQEGLEREEAPQPALPFQPDSPTHFTPSPLPRLTNQDNRPVFTSPTPAVAAAPTQPHSREKPWNLESKPPELSITSSLPPGPSMAVPTLLPEDRPSTTPPSQAWTPTQEGPGDMDRPWVPEVMSKTTGLGVEGTIATSTASGDDEETTTTIITTTVTTVQPPGPCSWNFSGPEGSLDSPTAPSSPSDVGLDCFYYISVYPGYGVEIKVENISLQEGETITVEGLGGPDPLPLANQSFLLRGQVIRSPTHQAALRFQSLPLPAGPGTFHFRYQAYLLSCHFPRRPAYGDVTVTSLHPGGSAHFHCATGYQLKGARFLTCLNATQPFWDSQEPVCIAACGGVIRNATTGRIVSPGFPGNYSNNLTCHWLLEAPESQRLHLHFEKVSLAEDDDRLIIRNGNNVEAPPVYDSYEVEYLPIEGLLSSGRHFFVEFSTDSSGAAAGMALRYEAFQQGHCYEPFVKYGNFSSSAPSYPVGTTVEFSCDPGYTLEQGSIIIECVDLHDPQWNETEPACRAVCSGEITDSAGVVLSPNWPEPYGRGQDCIWGVHVEEDKRIMLDIRVLRIGSGDVLTFYDGDDLTARVLGQYSGPRGHFKLFTSMADVTIQFQSDPGTSALGYQQGFVIHFFEVPRNDTCPELPEIPNGWKNPSQPELVHGTVVTYQCYPGYQVVGSSILMCQWDLSWSEDLPSCQRVTSCHDPGDVEHSRRLISSPKFPVGATVQYVCDQGFVLTGSAILTCHDRQAGSPKWSDRAPKCLLEQFKPCHGLSAPENGARSPEKRLHPAGATIHFSCAPGYVLKGQASIKCVPGHPSHWSDPPPICRAASLDGFYNGRSLDVAKAPAASSALDAAHLAAAIFLPLVAMVLLVGGVYLYFSRFQGKSPLQLPRTHPRPYNRITVESAFDNPTYETGSLSFAGDERI
B3: SEZ6 lacking the C-terminal 39 amino acids (pFU HA-SLIC-Flagx2-mmSEZ6Δcyto) (domain or fragment, UniProt Q7TSK2-1 20-952)
chain: LSSEAPITGEGHATGIRETDGELTAAPTPEQSDRGVHFVTTAPTLKLLNHHPLLEEFLQEGLEREEAPQPALPFQPDSPTHFTPSPLPRLTNQDNRPVFTSPTPAVAAAPTQPHSREKPWNLESKPPELSITSSLPPGPSMAVPTLLPEDRPSTTPPSQAWTPTQEGPGDMDRPWVPEVMSKTTGLGVEGTIATSTASGDDEETTTTIITTTVTTVQPPGPCSWNFSGPEGSLDSPTAPSSPSDVGLDCFYYISVYPGYGVEIKVENISLQEGETITVEGLGGPDPLPLANQSFLLRGQVIRSPTHQAALRFQSLPLPAGPGTFHFRYQAYLLSCHFPRRPAYGDVTVTSLHPGGSAHFHCATGYQLKGARFLTCLNATQPFWDSQEPVCIAACGGVIRNATTGRIVSPGFPGNYSNNLTCHWLLEAPESQRLHLHFEKVSLAEDDDRLIIRNGNNVEAPPVYDSYEVEYLPIEGLLSSGRHFFVEFSTDSSGAAAGMALRYEAFQQGHCYEPFVKYGNFSSSAPSYPVGTTVEFSCDPGYTLEQGSIIIECVDLHDPQWNETEPACRAVCSGEITDSAGVVLSPNWPEPYGRGQDCIWGVHVEEDKRIMLDIRVLRIGSGDVLTFYDGDDLTARVLGQYSGPRGHFKLFTSMADVTIQFQSDPGTSALGYQQGFVIHFFEVPRNDTCPELPEIPNGWKNPSQPELVHGTVVTYQCYPGYQVVGSSILMCQWDLSWSEDLPSCQRVTSCHDPGDVEHSRRLISSPKFPVGATVQYVCDQGFVLTGSAILTCHDRQAGSPKWSDRAPKCLLEQFKPCHGLSAPENGARSPEKRLHPAGATIHFSCAPGYVLKGQASIKCVPGHPSHWSDPPPICRAASLDGFYNGRSLDVAKAPAASSALDAAHLAAAIFLPLVAMVLLVGGVYLYFSRFQGKS
B4: SEZ6 C-terminal fragment generated by BACE1 cleavage (pFU HA-SLIC-Flagx2-mmSEZ6 CTF) (domain or fragment, UniProt Q7TSK2-1 907-991)
chain: DVAKAPAASSALDAAHLAAAIFLPLVAMVLLVGGVYLYFSRFQGKSPLQLPRTHPRPYNRITVESAFDNPTYETGSLSFAGDERI

In this assay the target is GluK2a (myc-tagged GluR6a(Q), from the plasmid pcDNA3.6 mycGluR6a(Q)) (UniProt P42260). Nature of the assay: co-IP; HEK293T co-transfected with mycGluR6a(Q) plasmid and SEZ6 constructs; lysis after 72 h in 20 mM HEPES pH 7.4, 150 mM NaCl, 0.5% NP-40, 2 mM EDTA, 10% glycerol; GluK2a precipitated with GluR6/7 antibody on protein G agarose O/N at 4°C; SEZ6 constructs detected with anti-HA.11.
B1: the binding result was “binds”.

With B2, the binding result is listed as “binds”.

On to B3, for which the binding result was “binds”.

Regarding B4, the binding entry is “no binding”.
